Four molecules from publication PMC3118807 can be followed below.

By UniProt entry, the sequences of proteins in these tests, tags left out.
UniProt P03230: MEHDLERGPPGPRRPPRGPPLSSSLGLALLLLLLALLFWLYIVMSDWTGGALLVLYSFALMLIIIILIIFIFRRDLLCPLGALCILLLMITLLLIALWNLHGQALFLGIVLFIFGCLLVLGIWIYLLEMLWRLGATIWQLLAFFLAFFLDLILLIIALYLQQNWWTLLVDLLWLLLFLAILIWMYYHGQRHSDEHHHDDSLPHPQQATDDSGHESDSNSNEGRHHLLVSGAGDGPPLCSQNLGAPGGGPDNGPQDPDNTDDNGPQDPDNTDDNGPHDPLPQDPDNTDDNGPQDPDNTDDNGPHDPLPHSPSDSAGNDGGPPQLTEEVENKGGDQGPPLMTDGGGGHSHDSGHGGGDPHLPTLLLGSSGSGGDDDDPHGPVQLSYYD

Results are given in words; binding and its absence hold for the method and conditions named. In cells and extracts the contact can be indirect. Some results given as binding are weak or reduced against the parent protein; the word gives no strength. Tags and fused reporters may be left off the sequences shown.

Holding throughout (assay): co-IP; HEK293 cells co-transfected with tagged LMP1 and tagged Id1; 400 µg of cell lysate incubated with primary antibody (anti-FLAG or anti-HA) for 2 hours, Protein A agarose for 1 hour, beads washed three times with lysis buffer; Western blot with anti-FLAG (M2) and anti-HA (12CA5)
In general terms: Immunoblotting shows a protein as a band on a membrane.

Experiment [1] deals with HA-B95.8 LMP1 wild type (Epstein-Barr virus, B95.8 prototype) (UniProt P03230).
The target in another experiment is T1, Id1-HA (UniProt P41134).
T1 sequence: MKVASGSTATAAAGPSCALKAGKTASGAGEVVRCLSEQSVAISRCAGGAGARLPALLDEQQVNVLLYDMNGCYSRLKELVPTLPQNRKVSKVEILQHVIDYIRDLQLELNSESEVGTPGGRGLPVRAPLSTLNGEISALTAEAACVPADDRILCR

The target of experiment [2] is FLAG-B95.8 LMP1 wild type (Epstein-Barr virus, B95.8 prototype) (UniProt P03230).

Consider “FLAG-Id1ΔN (from UniProt P41134 65-155) (domain or fragment)”, for which, in experiment [1], the binding result was “no binding”.

As for “FLAG-B95.8 LMP1 wild type (from UniProt P03230 1-386)”, the binding result with Id1-HA was “binds”.

B1: Id1-HA (protein, UniProt P41134 1-155)
chain: T1 sequence
On to B1, for which the binding result in experiment [2] is reported as “binds”.

B2: FLAG-Id1 (protein, UniProt P41134 1-155)
chain: T1 sequence
As for B2, in experiment [1], the binding entry is recorded as “binds”.
